Results reported in article PMC8227659, “The Metarhizium anisopliae Toxin, Destruxin A, Interacts with the SEC23A and TEME214 Proteins of Bombyx mori” (Journal of Fungi, 2021).
These are yes or no findings as the source states them, for the method shown. A result given as binding can be weak or reduced; the word gives no strength.

Biological target: Bombyx mori SEC13-like protein (BmSEC13L) (Bombyx mori (silkworm)) (UniProt Q1HPY4)
Experiment: two-hybrid; insect two-hybrid (I2H) in Sf9 cells at 27 °C; pIE-AD and pIE-DBD fusions co-transfected with a luciferase reporter vector; after 24 h destruxin A (0.0002-2 µg/mL) or DMSO only (CK) added; luciferase activity of cell extracts read 24 h later

Bombyx mori transmembrane protein 214 (BmTMEM214) (from UniProt A0A8R1WLS5)
binding: binds
